Test results reported in patent publication US20040071787A1, “Pharmacologic, therapeutic and diagnostic regulation of FGF-1 export” (Maine Medical Center Research Institute, priority 1996, published 2004).
Results are given in words; binding and its absence hold for the method and conditions named. Some binding calls cover weakened binding; strength is not graded here.

Amino acid sequences for entries named in this document (tags omitted). Residues count along the entry.
UniProt P05230, residues 22-155: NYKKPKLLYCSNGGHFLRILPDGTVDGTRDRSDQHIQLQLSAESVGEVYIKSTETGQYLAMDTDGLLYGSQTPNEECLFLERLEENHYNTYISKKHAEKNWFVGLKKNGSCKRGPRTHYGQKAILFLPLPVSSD

Target: recombinant FGF-1 (purified) (UniProt P05230)
Assay: Cu2+ oxidation, non-reduced SDS-PAGE

Substance: recombinant FGF-1 (purified) (from UniProt P05230 22-155) (ligand)
- binding: binds
